Experimental data from article PMC8058163 (Clinical pharmacology and therapeutics, 2020).

Columns and labels:
[1] = both, human, in vivo
clinical = conditions: both, human, in vivo

AUC0–6, goldenseal exposure / baseline ratio [1]: 1.05 [0.96–1.15] | ClR, goldenseal exposure / baseline ratio [1]: 1.00 [0.91–1.09] | Cmax, goldenseal exposure / baseline ratio [1]: 1.06 [0.92–1.22] | AUC(0-t) (clinical): 0.18 µM·h | CL renal (clinical): 122 mL/min | Cmax (clinical): 110 nM | AUC(0-t) (clinical; po): 0.17 µM·h | CL renal (clinical; po): 122 mL/min | Cmax (clinical; po): 100 nM
SMILES: NS(=O)(=O)c1cc(C(=O)O)c(NCc2ccco2)cc1Cl [Furosemide, furosemide]
